Experimental data: PubChem BioAssay AID1159584 (Peter MacCallum Cancer Centre, 2016)
The deposit covers about 18,000 reagents; this is a random part of them. Further read-outs or replicates are left out here. The record does not give: the amount of reagent, the time to read-out.

- Screen: 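Genes whose loss is lethal only together with E-cadherin loss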 (primary screen)
- System: human MCF10A breast epithelial cells, parental and CDH1-null
- Reagents: siRNA against human genes
- Measured: 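ATP luminescence (CellTiter-Glo) viability per line relative to mean mock wells over all plates, and the ratio of CDH1-null to parental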
- Direction: CDH1-null / parental viability ratio: higher = CDH1-null cells survive relatively better than parental

SLC45A2 [SID135622462] | CDH1-null / parental viability ratio = 1.04
C10orf62 (chromosome 10 open reading frame 62) [SID135625297] | CDH1-null / parental viability ratio = 1.53
POP5 (POP5 ribonuclease P/MRP subunit) [SID134320439] | CDH1-null / parental viability ratio = 1.15
TKT (transketolase) [SID134310599] | CDH1-null / parental viability ratio = 0.8
DDX51 (DEAD-box helicase 51) [SID152151408] | CDH1-null / parental viability ratio = 1.22
TPR (translocated promoter region, nuclear basket protein) [SID152153785] | CDH1-null / parental viability ratio = 1.11
RPP40 (ribonuclease P/MRP subunit p40) [SID152146903] | CDH1-null / parental viability ratio = 1.29
AKT1 (AKT serine/threonine kinase 1) [SID135620599] | CDH1-null / parental viability ratio = 0.84
NR4A3 (nuclear receptor subfamily 4 group A member 3) [SID135620675] | CDH1-null / parental viability ratio = 1.43
TMBIM1 (transmembrane BAX inhibitor motif containing 1) [SID135622885] | CDH1-null / parental viability ratio = 1.05
PPFIBP2 (PPFIB scaffold protein 2) [SID135624598] | CDH1-null / parental viability ratio = 1.26
WDR11 (WD repeat domain 11) [SID134317137] | CDH1-null / parental viability ratio = 1.2
SPMAP1 (sperm microtubule associated protein 1) [SID135624942] | CDH1-null / parental viability ratio = 1.65
GABRQ (gamma-aminobutyric acid type A receptor subunit theta) [SID134311596] | CDH1-null / parental viability ratio = 1.14
ETAA1 (ETAA1 activator of ATR kinase) [SID152147697] | CDH1-null / parental viability ratio = 0.88
CCDC102B (coiled-coil domain containing 102B) [SID152149814] | CDH1-null / parental viability ratio = 0.95
LRRC43 (leucine rich repeat containing 43) [SID152149701] | CDH1-null / parental viability ratio = 1.12
PABPC5 (poly(A) binding protein cytoplasmic 5) [SID134319324] | CDH1-null / parental viability ratio = 1
CAMK1G (calcium/calmodulin dependent protein kinase IG) [SID56478930] | CDH1-null / parental viability ratio = 0.91
IL3RA (interleukin 3 receptor subunit alpha) [SID134312922] | CDH1-null / parental viability ratio = 1.12
ELAVL4 (ELAV like RNA binding protein 4) [SID135623066] | CDH1-null / parental viability ratio = 1
CRK (CRK proto-oncogene, adaptor protein) [SID152151835] | CDH1-null / parental viability ratio = 0.62
OR8K3 [SID152149729] | CDH1-null / parental viability ratio = 1.18
DLST (dihydrolipoamide S-succinyltransferase) [SID135621866] | CDH1-null / parental viability ratio = 0.88
PAQR4 (progestin and adipoQ receptor family member 4) [SID152154715] | CDH1-null / parental viability ratio = 1.07
NAGLU (N-acetyl-alpha-glucosaminidase) [SID152148692] | CDH1-null / parental viability ratio = 1
USP36 (ubiquitin specific peptidase 36) [SID152147834] | CDH1-null / parental viability ratio = 1.04
CES4A (carboxylesterase 4A) [SID135621680] | CDH1-null / parental viability ratio = 0.9
SLC25A6 [SID152153886] | CDH1-null / parental viability ratio = 1.11
INHBA (inhibin subunit beta A) [SID135622179] | CDH1-null / parental viability ratio = 0.84
IQGAP2 (IQ motif containing GTPase activating protein 2) [SID152148962] | CDH1-null / parental viability ratio = 1.13
CACNA2D4 [SID135624217] | CDH1-null / parental viability ratio = 0.89
CSNK1D (casein kinase 1 delta) [SID56478658] | CDH1-null / parental viability ratio = 1.1
GP5 (glycoprotein V platelet) [SID152148495] | CDH1-null / parental viability ratio = 0.97
CEACAM21 (CEA cell adhesion molecule 21) [SID134319140] | CDH1-null / parental viability ratio = 0.82
